Binding data for one substance are collected here from publication PMC7869505.

The chains behind the UniProt entries cited, without tags or fusion partners. Where a name states a change or a piece, a line headed by the entry shows the natural chain unless it says otherwise.
UniProt A0A894JZQ6: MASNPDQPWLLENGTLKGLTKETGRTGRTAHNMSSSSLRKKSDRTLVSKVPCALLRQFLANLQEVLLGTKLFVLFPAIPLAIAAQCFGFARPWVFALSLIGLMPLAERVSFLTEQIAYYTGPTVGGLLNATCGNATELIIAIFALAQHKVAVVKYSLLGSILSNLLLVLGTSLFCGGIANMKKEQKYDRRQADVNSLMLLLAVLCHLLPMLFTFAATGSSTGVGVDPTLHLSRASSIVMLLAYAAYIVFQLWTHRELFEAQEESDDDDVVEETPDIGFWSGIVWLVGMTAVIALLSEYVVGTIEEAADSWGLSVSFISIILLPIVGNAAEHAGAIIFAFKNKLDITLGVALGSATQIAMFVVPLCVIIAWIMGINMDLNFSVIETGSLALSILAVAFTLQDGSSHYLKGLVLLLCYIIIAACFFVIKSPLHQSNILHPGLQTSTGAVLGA

Results are given in words; binding and its absence hold for the method and conditions named. Binding calls can cover weak binding; strength is not graded here.

This experiment deals with MdCAX3L-2 (apple (Malus domestica)). In words: two-hybrid; yeast two-hybrid membrane protein system (MoBiTec); bait vector pBT3-N, prey vector pPR3-N, yeast strain NMY51; selection on SD -Leu/-Trp/-His/-Ade with 2.5 mM 3-AT, with or without X-alpha-gal (20 ug/ml).

For MdCAX3L-1 (from UniProt A0A894JZQ6), the binding entry is recorded as “binds”.
